# Experimental data published in the supplement of paper PMC12067093, “Discovery and optimisation of a covalent ligand for TRIM25 and its application to targeted protein ubiquitination” (Chemical Science, 2025).
# Amino acid sequences for entries named in this document (tags omitted). A change or cut given only in a name is not applied to a line headed by its entry.
# UniProt Q93009, whole entry, looked up: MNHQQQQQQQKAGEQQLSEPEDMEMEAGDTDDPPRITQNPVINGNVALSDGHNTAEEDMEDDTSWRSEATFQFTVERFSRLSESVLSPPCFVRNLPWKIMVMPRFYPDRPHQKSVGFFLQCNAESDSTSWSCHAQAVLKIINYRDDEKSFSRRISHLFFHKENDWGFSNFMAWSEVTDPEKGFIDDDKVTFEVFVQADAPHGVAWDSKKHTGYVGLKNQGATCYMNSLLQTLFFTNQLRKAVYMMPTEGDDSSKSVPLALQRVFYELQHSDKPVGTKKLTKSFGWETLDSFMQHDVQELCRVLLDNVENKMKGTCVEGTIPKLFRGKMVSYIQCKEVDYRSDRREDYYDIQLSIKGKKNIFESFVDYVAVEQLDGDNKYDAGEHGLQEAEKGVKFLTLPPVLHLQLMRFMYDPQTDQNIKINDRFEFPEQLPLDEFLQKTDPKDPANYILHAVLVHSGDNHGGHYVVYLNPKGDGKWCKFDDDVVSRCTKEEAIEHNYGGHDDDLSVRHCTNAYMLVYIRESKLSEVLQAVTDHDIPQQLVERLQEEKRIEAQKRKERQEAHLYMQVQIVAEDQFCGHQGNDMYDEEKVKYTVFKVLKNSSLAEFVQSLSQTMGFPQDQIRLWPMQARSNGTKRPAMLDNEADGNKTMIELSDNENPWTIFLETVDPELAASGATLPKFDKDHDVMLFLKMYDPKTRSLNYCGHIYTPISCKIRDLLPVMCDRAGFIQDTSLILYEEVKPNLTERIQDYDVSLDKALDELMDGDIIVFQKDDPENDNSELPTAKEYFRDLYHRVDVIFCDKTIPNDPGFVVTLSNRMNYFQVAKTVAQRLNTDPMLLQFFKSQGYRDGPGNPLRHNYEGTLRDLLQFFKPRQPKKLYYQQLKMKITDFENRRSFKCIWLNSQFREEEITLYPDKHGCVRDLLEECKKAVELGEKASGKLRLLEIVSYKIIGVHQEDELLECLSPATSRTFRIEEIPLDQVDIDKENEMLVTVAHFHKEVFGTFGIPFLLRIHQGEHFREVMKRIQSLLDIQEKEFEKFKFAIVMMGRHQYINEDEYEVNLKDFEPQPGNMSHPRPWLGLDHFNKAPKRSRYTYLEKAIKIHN
# UniProt Q86UV5: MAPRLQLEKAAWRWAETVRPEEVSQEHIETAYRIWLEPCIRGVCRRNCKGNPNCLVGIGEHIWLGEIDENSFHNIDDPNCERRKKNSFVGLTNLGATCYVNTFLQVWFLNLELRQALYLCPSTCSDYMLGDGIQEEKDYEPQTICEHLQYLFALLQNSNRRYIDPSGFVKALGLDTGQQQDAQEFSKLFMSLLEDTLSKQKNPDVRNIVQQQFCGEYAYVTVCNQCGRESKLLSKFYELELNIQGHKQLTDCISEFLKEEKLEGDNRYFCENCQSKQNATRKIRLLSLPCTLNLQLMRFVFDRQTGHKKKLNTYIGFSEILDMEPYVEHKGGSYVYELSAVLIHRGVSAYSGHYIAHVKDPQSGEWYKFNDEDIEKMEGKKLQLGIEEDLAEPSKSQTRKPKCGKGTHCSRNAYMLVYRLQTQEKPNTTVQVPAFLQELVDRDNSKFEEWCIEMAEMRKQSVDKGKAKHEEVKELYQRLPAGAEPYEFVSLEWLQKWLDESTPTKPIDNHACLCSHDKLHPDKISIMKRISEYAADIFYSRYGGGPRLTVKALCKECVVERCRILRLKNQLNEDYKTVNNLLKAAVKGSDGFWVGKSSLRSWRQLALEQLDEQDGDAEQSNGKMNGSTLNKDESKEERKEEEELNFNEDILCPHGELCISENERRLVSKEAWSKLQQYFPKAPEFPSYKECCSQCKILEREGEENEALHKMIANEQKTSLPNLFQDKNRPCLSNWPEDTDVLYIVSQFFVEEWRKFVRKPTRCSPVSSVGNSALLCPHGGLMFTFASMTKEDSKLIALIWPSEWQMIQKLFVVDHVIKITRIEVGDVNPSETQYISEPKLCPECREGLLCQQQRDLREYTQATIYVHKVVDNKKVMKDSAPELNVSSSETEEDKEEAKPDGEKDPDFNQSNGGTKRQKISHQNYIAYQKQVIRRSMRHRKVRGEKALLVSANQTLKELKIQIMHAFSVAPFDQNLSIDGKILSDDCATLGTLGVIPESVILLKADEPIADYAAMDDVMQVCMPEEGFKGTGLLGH
# UniProt Q8N806: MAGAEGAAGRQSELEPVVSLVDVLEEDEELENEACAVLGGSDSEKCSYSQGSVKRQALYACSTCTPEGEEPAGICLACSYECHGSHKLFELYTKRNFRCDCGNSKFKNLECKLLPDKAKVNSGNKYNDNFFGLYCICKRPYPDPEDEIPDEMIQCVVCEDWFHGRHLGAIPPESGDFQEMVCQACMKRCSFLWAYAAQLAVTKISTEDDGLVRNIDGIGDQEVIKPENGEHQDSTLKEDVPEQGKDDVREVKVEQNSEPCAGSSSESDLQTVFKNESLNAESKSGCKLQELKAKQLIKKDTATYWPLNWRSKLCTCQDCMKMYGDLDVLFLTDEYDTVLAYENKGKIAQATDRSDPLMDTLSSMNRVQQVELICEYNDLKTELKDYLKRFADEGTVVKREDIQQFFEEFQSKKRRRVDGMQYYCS
# UniProt Q8TEY7: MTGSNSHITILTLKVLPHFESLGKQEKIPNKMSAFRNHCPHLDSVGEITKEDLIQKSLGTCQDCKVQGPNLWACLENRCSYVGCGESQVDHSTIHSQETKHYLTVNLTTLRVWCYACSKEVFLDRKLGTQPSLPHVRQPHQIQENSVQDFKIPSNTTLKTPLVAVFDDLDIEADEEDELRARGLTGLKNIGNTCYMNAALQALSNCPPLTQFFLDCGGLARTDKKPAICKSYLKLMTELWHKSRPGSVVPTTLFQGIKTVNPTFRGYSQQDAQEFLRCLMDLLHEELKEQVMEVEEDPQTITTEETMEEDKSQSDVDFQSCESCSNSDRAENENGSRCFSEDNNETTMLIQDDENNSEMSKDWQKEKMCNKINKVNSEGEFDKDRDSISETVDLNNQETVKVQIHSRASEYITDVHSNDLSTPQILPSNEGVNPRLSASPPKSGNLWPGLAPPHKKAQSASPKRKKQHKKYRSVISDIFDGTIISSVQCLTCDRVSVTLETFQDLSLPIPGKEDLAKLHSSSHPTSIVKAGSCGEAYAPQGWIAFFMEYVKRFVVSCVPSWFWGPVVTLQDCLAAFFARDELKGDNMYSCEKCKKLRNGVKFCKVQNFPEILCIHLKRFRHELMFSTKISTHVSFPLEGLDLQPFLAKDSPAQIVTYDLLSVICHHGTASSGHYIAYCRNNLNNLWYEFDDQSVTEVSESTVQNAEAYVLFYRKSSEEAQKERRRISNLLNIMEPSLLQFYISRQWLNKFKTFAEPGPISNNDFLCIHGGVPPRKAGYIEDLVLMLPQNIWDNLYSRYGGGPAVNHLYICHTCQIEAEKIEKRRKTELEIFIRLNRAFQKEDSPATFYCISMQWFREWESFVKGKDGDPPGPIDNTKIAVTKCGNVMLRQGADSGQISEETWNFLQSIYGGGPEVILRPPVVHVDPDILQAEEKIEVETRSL
# UniProt P35125: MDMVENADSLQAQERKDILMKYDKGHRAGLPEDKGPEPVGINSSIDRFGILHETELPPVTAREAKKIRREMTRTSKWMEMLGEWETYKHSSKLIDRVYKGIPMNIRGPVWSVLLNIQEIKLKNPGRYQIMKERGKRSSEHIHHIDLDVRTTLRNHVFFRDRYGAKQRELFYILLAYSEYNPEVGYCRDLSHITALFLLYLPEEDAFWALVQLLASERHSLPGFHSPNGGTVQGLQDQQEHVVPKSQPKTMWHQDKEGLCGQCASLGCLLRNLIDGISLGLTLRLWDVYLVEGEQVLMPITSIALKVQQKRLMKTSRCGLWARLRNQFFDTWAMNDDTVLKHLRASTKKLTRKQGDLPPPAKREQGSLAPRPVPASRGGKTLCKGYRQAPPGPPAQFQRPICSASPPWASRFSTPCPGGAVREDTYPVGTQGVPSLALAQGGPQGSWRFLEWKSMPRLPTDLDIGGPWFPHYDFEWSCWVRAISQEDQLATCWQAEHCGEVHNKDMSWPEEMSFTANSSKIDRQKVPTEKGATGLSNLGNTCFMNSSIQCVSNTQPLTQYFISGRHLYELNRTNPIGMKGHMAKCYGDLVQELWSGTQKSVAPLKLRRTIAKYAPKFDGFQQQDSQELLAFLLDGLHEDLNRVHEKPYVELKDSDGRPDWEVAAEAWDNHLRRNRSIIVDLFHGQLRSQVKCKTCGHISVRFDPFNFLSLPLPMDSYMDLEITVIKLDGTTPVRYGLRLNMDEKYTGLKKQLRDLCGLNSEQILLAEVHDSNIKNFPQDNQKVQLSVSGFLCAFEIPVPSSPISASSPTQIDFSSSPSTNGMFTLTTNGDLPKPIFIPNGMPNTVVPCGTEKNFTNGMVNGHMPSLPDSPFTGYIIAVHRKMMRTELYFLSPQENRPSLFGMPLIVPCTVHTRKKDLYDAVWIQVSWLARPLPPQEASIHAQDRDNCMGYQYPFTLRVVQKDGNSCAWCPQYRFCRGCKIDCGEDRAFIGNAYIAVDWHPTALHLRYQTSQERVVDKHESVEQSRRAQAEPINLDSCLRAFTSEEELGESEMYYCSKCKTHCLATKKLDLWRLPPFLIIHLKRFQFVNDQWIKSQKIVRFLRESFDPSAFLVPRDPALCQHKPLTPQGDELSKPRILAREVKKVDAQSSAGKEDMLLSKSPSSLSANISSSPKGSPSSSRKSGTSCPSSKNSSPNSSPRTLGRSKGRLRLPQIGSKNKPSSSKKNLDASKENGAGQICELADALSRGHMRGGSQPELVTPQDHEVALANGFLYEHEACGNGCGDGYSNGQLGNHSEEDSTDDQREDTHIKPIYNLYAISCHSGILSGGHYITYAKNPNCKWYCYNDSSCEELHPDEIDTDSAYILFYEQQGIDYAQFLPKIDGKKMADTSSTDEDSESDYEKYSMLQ
# UniProt Q96T88: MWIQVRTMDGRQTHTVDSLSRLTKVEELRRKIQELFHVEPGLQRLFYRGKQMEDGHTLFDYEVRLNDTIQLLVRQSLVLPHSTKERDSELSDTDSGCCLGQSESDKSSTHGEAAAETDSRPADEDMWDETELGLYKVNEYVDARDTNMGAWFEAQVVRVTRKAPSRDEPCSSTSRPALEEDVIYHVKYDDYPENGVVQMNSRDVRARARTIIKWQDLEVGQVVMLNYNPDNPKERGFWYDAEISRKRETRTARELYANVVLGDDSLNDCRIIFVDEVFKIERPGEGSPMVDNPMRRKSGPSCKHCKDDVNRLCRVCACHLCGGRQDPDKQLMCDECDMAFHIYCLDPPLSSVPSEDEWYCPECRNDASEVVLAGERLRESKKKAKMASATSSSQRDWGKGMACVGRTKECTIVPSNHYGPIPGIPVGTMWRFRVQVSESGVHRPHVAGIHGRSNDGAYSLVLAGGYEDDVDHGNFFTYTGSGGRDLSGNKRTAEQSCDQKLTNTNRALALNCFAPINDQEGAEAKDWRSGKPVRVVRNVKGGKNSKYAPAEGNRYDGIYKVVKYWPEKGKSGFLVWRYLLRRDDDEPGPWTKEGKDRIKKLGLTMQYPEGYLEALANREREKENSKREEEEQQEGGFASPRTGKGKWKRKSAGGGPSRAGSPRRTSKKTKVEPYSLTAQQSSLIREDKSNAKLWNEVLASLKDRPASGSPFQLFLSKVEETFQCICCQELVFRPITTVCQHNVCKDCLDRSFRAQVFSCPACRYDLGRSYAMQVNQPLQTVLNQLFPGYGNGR
# UniProt P07919: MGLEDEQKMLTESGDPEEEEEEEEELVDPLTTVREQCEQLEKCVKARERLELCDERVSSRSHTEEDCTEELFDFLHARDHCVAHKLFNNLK
# UniProt P17480: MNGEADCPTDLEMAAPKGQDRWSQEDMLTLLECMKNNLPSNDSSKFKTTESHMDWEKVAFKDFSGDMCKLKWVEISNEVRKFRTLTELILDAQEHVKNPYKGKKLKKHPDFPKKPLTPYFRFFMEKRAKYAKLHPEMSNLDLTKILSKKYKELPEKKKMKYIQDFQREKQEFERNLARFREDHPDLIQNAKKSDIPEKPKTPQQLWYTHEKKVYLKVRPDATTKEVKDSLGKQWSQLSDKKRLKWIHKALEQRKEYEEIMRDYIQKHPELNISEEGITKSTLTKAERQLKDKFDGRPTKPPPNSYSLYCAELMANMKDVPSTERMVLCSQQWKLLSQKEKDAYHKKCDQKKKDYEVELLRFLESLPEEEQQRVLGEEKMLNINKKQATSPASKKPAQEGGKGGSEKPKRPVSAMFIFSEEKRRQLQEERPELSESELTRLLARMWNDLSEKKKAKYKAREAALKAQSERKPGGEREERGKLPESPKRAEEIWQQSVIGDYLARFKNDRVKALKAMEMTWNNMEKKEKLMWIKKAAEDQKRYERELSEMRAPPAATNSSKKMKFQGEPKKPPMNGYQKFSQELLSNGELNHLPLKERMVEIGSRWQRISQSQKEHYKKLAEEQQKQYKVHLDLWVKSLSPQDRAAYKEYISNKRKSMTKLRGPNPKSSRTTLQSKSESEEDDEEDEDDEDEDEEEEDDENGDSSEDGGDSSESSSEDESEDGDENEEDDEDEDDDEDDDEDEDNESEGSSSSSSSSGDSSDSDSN
# The other results are listed elsewhere or left out.
# Compound: CC1Cc2ccccc2N1C(=O)C1CCCN(C1)C(=O)CCl (mixture of isomers) [TRIM25 ligand 11 (diastereomer mixture)]
# Experiment: probe-labelled cysteine peptide fold change vs DMSO (competition) (log2 fold change); higher = less target engagement (more negative = stronger competition)
# Settings: THP-1, incubation time: 4 h
# 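Also: competitive chemoproteomic profiling in live THP-1 cells with an iodoacetamide desthiobiotin (IA-DTB) probe, comparing probe-labelled peptide intensities in compound-treated cells against DMSO-treated controls.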
Target,probe-labelled cysteine peptide fold change (10 µM),probe-labelled cysteine peptide fold change (50 µM)
USP7_Q93009_223_NQGATCYMNSLLQTLFFTNQLR (UniProt Q93009),-0.204,-0.0819
UNG_P13051_141_HYTVYPPPHQVFTWTQMCDIK (UniProt P13051),0.165,-0.0181
USP15_Q9Y4E8_791_DCIELFTTK (UniProt Q9Y4E8),-0.0634,-0.0844
USP48_Q86UV5_652+658_KEEEELNFNEDILCPHGELCISENERR (UniProt Q86UV5),-0.0226,-0.347
USP24_Q9UPU5_679_LVTGSLIACHR (UniProt Q9UPU5),-0.168,0.072
USP34_Q70CQ2_3118_SNIRPPRPELNMCLLPTMVETSK (UniProt Q70CQ2),-0.0166,0.0385
UBXN7_O94888_478_KLSHLDYDITLQEAGLCPQETVFVQER (UniProt O94888),-0.259,-0.225
UBR7_Q8N806_137_YNDNFFGLYCICK (UniProt Q8N806),0.134,-0.0455
USP33_Q8TEY7_278_CLMDLLHEELK (UniProt Q8TEY7),-0.125,-0.0604
USP34_Q70CQ2_1330_KGEGVQLPASCLPPPQK (UniProt Q70CQ2),-0.00884,-0.266
USP34_Q70CQ2_111_HCTTINIDSTWQDESNQAEEPLNIDRECNEGSTER (UniProt Q70CQ2),-0.166,-0.0113
USP6_P35125_981_IDCGEDR (UniProt P35125),0.126,-0.00629
UGGT1_Q9NYU2_1024_VFMNCQSK (UniProt Q9NYU2),0.0145,0.15
UHRF1_Q96T88_269_ELYANVVLGDDSLNDCR (UniProt Q96T88),-0.153,-0.0383
UQCRC2_P22695_125_ENMAYTVECLR (UniProt P22695),0.0726,0.0542
USP16_Q9Y5T5_205_GLSNLGNTCFFNAVMQNLSQTPVLR (UniProt Q9Y5T5),-0.356,-0.392
UHRF1_Q96T88_727+739_VEETFQCICCQELVFRPITTVCQHNVCK (UniProt Q96T88),0.136,-0.00123
USP39_Q53GS9_105_HCPYLDTINR (UniProt Q53GS9),-0.0864,-0.231
UQCRH_P07919_53_ERLELCDER (UniProt P07919),-0.262,-0.353
UBTF_P17480_309_FDGRPTKPPPNSYSLYCAELMANMK (UniProt P17480),-0.0778,-0.228
UFL1_O94874_32_NCIEIVNK (UniProt O94874),0.1,0.0491
UQCRH_P07919_67_SHTEEDCTEELFDFLHAR (UniProt P07919),-0.357,-0.434
UHRF1_Q96T88_318+321_VCACHLCGGR (UniProt Q96T88),-0.0653,0.0372

# Random excerpt: two entries already listed
Target,probe-labelled cysteine peptide fold change (10 µM),probe-labelled cysteine peptide fold change (50 µM)
USP34_Q70CQ2_1330_KGEGVQLPASCLPPPQK (UniProt Q70CQ2),-0.00884,-0.266
USP33_Q8TEY7_278_CLMDLLHEELK (UniProt Q8TEY7),-0.125,-0.0604
